No constants are given. Whether binding was seen depends on the method and setting. Binding seen in cells or lysates may run through a third protein. A result given as binding can be weak or reduced; the word gives no strength.
Target: T1, Type II hexokinase (human (endogenous in HeLa)) (UniProt P52789)
T1 sequence: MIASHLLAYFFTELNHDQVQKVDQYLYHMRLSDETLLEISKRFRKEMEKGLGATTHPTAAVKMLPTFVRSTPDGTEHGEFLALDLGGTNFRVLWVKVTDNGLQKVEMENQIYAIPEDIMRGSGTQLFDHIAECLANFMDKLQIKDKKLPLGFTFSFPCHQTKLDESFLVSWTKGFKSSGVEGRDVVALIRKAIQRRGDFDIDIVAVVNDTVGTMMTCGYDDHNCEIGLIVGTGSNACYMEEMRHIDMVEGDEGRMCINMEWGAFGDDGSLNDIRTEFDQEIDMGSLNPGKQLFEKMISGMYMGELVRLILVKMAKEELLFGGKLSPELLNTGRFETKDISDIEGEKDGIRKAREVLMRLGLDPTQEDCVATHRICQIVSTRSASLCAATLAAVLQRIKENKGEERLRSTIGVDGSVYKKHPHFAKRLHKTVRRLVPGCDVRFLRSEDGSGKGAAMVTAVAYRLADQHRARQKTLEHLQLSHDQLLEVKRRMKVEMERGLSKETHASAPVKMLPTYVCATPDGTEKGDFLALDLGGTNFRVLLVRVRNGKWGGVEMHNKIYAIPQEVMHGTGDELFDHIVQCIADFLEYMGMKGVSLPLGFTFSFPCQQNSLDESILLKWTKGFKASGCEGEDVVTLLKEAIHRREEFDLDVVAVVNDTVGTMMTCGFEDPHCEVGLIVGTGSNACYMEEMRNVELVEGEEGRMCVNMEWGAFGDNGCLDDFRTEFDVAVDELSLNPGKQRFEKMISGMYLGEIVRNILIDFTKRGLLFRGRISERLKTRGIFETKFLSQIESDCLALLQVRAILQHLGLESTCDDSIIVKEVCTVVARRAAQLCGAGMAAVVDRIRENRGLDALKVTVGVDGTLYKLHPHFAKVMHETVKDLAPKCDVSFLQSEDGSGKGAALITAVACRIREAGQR
Test: co-IP; HK II immunoprecipitated from HeLa cells kept in control conditions, VDAC detected by blot; 1000-1500 µg of proteins per reaction, antibodies on protein A- or protein G-Sepharose, 4°C overnight

For “voltage-dependent anion channel (human (endogenous in HeLa))”, the binding was “binds”.

From publication PMC2267038
